# Assay: general procedure: Fmoc solid-phase peptide synthesis; 2-chlorotrityl chloride resin
# Settings: conjugation step
substance,measurement,value
Rhodamine-GFFYE-CS-EE,conjugation yield,80% yield
